In patent US20060172992A1, “Therapeutic agent for overactive bladder resulting from cerebral infarction” (EISAI CO., LTD., priority 2004, published 2006):

Tested on: cerebral infarction rats
Conditions: brains removed 6 hours after cerebral infarction

COc1cc2c(cc1OC)C(=O)C(CC1CCN(Cc3ccccc3)CC1)C2.Cl (stereo not shown) [donepezil hydrochloride, 1-benzyl-4-[(5,6-dimethoxy-1-indanone)-2-yl]methylpiperidine hydrochloride] was tested, and the “percentage of volume of cerebral infarct to that of the entire brain, CI+D versus CI+Ve” value was “No significant difference”.
